Laboratory results as given in publication PMC3711543.
These are yes or no findings as the source states them, for the method shown. In cells and extracts the contact can be indirect. Some results given as binding are weak or reduced against the parent protein; the word gives no strength. Sequences can lack the tags named with a protein.

By UniProt entry, the sequences of proteins in these tests, tags left out.
UniProt O74456: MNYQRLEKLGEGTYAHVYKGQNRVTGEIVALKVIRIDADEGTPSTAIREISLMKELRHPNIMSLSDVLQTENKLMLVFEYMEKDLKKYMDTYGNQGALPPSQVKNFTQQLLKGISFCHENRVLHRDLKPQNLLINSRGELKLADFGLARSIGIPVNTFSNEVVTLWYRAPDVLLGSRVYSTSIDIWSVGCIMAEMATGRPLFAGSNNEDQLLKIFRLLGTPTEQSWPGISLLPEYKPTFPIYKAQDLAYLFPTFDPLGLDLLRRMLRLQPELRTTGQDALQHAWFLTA

Legend:
[1] = target: T1, FLAG-Cek1p (N-terminally FLAG-tagged Cek1p) (S. pombe) (UniProt P38938); experiment: co-IP; S. pombe lysate (~5 mg) with anti-FLAG (M2) antibody and protein G Sepharose, 150 mM NaCl, 4 hr at 4°C; Western blot with anti-HA and anti-FLAG
T1 sequence: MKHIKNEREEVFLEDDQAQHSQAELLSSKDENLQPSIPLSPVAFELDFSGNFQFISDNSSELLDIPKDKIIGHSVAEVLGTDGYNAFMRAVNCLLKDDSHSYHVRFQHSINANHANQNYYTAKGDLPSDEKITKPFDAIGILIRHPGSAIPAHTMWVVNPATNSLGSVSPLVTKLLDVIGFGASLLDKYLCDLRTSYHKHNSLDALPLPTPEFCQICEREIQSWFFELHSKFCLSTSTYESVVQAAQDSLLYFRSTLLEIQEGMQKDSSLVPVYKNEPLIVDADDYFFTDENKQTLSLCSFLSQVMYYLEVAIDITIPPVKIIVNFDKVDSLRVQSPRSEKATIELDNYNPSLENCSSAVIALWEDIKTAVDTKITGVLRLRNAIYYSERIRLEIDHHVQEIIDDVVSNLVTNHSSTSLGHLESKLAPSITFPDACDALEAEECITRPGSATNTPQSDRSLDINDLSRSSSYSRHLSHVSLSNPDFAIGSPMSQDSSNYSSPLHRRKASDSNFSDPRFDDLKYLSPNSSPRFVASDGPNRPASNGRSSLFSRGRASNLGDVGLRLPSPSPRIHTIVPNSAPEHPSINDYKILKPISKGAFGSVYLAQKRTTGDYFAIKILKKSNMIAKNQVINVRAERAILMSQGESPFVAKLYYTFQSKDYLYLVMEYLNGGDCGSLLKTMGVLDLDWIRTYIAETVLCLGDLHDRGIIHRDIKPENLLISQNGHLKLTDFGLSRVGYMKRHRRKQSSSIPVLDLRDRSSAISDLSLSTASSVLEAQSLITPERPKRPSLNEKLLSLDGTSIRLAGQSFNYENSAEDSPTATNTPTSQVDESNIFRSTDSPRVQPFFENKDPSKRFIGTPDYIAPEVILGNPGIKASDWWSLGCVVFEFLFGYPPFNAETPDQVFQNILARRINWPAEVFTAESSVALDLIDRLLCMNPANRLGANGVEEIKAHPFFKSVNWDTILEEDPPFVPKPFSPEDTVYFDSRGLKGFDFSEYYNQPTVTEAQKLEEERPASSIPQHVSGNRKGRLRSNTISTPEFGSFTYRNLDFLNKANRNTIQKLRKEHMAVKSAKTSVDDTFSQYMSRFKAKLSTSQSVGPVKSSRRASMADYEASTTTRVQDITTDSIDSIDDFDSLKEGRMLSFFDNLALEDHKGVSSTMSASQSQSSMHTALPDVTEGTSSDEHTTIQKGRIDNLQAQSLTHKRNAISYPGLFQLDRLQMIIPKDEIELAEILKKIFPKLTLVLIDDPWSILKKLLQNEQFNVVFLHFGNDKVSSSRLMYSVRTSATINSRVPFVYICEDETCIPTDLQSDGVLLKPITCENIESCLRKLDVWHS

[2] = target: T2, FLAG-Psl1p (FLAG-Spbc20f10.10p) (S. pombe) (UniProt O42979); experiment: as above
T2 sequence: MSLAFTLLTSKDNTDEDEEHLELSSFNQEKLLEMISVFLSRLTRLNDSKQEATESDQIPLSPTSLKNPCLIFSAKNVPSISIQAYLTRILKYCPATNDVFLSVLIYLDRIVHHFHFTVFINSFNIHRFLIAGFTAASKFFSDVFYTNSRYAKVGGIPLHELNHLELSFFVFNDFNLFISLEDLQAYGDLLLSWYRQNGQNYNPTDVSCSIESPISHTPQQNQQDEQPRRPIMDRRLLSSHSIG

binding [1]: binds
binding [2]: binds
Substance: Pef1p-3HA (triple HA-tagged Pef1p) (from UniProt O74456 1-288)
